Publication PMC11601944
These are yes or no findings as the source states them, for the method shown. In cells and extracts the contact can be indirect. Some results given as binding are weak or reduced against the parent protein; the word gives no strength.

The chains behind the UniProt entries cited, without tags or fusion partners.
UniProt Q14789: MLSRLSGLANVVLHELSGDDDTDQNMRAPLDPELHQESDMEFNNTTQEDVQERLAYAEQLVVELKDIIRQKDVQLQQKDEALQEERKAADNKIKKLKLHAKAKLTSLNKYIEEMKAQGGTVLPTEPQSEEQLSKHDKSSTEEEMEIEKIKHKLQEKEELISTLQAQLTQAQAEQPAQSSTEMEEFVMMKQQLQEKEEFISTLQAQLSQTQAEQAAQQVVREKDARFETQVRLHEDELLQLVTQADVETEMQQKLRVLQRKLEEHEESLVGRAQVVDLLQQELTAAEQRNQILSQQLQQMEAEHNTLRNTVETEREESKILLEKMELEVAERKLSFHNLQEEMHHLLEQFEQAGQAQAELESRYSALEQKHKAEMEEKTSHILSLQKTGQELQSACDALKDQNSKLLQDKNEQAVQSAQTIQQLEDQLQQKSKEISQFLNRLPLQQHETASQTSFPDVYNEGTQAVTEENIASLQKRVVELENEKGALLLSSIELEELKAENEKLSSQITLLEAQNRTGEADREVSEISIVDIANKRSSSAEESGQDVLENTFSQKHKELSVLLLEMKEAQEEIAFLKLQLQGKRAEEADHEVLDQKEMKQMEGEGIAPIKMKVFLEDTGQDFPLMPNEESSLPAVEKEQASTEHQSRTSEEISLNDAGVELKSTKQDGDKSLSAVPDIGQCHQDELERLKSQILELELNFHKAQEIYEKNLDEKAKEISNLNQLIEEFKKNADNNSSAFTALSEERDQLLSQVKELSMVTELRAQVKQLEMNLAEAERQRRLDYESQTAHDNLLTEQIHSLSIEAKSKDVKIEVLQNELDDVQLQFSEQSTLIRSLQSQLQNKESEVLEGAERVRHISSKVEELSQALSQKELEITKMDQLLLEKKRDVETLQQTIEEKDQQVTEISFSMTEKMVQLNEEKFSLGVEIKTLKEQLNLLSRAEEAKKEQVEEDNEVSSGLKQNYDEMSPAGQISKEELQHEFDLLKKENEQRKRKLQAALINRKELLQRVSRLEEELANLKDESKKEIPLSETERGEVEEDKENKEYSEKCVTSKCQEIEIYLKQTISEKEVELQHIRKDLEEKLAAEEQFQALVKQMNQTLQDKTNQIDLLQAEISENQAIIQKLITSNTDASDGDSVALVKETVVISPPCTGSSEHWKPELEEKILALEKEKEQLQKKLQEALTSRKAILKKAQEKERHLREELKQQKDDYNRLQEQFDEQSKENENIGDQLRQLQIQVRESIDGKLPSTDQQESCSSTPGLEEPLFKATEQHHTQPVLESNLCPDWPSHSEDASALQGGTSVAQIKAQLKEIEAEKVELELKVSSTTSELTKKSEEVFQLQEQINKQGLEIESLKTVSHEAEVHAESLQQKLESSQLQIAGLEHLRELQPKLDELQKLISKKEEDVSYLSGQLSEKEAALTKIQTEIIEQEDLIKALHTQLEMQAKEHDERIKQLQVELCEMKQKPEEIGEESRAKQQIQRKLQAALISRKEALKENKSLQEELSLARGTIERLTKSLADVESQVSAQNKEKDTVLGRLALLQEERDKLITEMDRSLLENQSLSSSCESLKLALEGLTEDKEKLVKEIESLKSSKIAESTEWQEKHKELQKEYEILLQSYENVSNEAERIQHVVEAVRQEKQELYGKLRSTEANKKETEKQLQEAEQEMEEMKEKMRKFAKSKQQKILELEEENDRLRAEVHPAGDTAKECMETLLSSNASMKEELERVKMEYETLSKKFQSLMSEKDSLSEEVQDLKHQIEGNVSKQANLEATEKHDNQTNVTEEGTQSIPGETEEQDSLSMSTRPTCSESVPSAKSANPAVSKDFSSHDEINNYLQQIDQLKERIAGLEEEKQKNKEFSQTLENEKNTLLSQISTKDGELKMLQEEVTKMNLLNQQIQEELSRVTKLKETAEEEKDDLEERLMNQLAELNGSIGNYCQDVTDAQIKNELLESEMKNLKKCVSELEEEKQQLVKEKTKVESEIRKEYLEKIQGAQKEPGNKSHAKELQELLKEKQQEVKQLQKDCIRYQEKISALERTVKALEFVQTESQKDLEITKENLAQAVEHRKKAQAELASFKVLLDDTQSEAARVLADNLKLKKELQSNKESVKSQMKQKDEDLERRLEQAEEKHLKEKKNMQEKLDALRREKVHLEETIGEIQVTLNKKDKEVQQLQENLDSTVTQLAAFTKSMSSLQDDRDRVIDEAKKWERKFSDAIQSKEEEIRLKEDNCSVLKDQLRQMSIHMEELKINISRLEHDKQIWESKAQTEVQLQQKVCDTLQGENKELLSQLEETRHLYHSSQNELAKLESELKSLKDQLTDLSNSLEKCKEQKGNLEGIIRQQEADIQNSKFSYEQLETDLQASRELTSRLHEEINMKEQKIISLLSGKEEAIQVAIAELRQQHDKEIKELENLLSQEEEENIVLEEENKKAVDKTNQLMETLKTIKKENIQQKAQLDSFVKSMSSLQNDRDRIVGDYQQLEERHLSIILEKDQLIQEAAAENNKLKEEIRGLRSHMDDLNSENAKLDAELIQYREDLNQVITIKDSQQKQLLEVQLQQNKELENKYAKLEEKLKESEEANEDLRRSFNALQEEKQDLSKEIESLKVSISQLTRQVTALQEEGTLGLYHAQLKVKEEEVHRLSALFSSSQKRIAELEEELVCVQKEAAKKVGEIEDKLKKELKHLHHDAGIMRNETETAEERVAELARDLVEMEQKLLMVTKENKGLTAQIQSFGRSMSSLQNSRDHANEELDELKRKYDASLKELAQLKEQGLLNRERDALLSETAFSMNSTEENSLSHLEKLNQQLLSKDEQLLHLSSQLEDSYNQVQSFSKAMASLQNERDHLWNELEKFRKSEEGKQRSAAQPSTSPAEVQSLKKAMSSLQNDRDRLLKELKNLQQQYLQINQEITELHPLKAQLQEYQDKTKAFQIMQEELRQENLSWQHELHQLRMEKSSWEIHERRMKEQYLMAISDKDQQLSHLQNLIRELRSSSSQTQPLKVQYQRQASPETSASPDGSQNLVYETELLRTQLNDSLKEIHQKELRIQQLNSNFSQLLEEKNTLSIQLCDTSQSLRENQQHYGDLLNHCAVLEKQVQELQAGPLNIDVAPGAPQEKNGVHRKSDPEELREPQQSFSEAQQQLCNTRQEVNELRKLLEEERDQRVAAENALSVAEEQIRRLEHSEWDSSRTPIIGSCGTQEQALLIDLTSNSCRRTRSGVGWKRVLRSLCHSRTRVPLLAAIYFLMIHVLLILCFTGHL

How the values were obtained:
[1] = biological target: T1, GM130 (human (endogenous in LSG and HSG cells)) (UniProt Q08379); assay: co-IP; protein extracts of HSG cells (20 mM Tris-HCl pH 7.4, 150 mM NaCl, 1% Igepal, protease inhibitors); 500 ug total protein per assay; antibody-coated Protein-A/G-Sepharose beads; Western blot; control IgG anti-integrin alpha6
T1 sequence: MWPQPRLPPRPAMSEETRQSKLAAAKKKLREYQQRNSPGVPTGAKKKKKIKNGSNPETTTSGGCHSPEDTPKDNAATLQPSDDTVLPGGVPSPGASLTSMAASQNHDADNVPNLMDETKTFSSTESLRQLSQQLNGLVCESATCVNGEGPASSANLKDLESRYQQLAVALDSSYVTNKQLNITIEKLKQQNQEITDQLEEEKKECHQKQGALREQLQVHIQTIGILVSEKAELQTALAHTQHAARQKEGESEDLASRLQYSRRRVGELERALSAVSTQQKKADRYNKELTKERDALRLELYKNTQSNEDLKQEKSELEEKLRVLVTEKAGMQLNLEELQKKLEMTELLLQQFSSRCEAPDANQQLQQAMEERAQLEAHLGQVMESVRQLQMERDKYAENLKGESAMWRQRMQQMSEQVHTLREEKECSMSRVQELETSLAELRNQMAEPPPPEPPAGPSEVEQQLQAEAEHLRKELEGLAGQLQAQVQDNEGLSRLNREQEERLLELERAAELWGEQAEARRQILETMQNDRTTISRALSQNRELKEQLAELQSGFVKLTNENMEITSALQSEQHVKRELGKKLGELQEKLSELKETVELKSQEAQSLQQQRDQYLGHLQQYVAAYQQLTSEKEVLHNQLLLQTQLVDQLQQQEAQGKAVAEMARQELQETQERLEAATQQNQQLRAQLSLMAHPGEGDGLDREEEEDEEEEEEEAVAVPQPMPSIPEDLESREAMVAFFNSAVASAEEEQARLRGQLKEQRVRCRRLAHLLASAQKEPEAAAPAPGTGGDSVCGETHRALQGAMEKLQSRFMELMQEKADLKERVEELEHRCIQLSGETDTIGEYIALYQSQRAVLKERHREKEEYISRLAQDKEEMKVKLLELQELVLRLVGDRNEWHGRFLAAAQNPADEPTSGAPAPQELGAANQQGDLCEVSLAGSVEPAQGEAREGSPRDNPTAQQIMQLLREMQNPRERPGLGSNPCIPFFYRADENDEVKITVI

[2] = biological target: Giantin (human (endogenous in LSG and HSG cells)) (UniProt Q14789); assay: as above
[3] = biological target: T1, GM130 (human (endogenous in LSG and HSG cells)); assay: co-IP; pooled protein extracts of LSG from patients with SjD or controls (20 mM Tris-HCl pH 7.4, 150 mM NaCl, 1% Igepal, protease inhibitors); 500 ug total protein per assay; antibody-coated Protein-A/G-Sepharose beads; Western blot; control IgG anti-integrin alpha6
[4] = biological target: Giantin (human (endogenous in LSG and HSG cells)) (UniProt Q14789); assay: as above

- binding [1]: no binding
- binding [2]: binds
- binding [3]: no binding
- binding [4]: binds
B1: Gal3-O-sulfotransferase 2 (enzyme, UniProt Q9H3Q3 1-398)
chain: MMSMLGGLQRYFRVILLLLLALTLLLLAGFLHSDLELDTPLFGGQAEGPPVTNIMFLKTHKTASSTVLNILYRFAETHNLSVALPAGSRVHLGYPWLFLARYVEGVGSQQRFNIMCNHLRFNLPQVQKVMPNDTFYFSILRNPVFQLESSFIYYKTYAPAFRGAPSLDAFLASPRTFYNDSRHLRNVYAKNNMWFDFGFDPNAQCEEGYVRARIAEVERRFRLVLIAEHLDESLVLLRRRLRWALDDVVAFRLNSRSARSVARLSPETRERARSWCALDWRLYEHFNRTLWAQLRAELGPRRLRGEVERLRARRRELASLCLQDGGALKNHTQIRDPRLRPYQSGKADILGYNLRPGLDNQTLGVCQRLVMPELQYMARLYALQFPEKPLKNIPFLGA
